The nature of the series: general procedure: Fmoc solid-phase peptide synthesis. The settings on record: whole synthesis.

With “A = Lys-Arg-Gly-Cys-Gly- B = -Ser-Cys W¹ = Thr, X = Lys, V¹ = Phe, Z = Leu, W² = Ser, Y¹ = Tyr, V² = Lys, Y² = Phe”, the isolated yield was 45%.

Source of the values: patent EP0687685A1 (TEIJIN LIMITED, priority 1993, dated 1994).
